In article PMC6997161:
These are yes or no findings as the source states them, for the method shown. For some assays here: In cells and extracts the contact can be indirect. Some results given as binding are weak or reduced against the parent protein; the word gives no strength. For some assays here: Where a sequence is shown, tags or fusion partners need not be part of it.

Sequences of proteins named here, by UniProt entry; tags and fusion partners are left off.
UniProt Q9S7N2: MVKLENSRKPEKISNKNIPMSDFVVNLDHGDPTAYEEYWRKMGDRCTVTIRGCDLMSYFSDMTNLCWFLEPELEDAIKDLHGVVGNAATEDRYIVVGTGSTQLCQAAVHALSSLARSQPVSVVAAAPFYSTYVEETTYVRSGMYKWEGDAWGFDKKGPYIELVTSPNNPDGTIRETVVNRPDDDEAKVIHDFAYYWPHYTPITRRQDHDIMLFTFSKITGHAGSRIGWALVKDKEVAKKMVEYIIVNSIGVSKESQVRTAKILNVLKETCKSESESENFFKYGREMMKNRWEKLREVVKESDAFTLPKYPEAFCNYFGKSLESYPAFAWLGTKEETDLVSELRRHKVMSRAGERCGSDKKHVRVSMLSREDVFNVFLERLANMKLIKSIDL
UniProt Q9LR29: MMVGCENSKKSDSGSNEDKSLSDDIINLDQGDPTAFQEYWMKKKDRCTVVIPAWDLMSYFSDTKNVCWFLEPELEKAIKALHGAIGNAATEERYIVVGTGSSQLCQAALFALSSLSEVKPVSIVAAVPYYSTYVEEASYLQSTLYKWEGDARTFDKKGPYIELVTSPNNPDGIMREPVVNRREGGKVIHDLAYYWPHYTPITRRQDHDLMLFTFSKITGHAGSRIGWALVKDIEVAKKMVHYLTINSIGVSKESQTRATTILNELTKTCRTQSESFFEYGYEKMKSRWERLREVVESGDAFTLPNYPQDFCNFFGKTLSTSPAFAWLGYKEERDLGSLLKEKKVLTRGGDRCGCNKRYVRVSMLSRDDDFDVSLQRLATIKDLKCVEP

Key:
[1] = biological target: TAA1-Flag (Arabidopsis thaliana) (UniProt Q9S7N2); test: co-IP; coexpressed in Arabidopsis Col-0 protoplasts; anti-Flag beads, 4 °C for 4 h; 50 mM Tris-HCl pH 7.5, 150 mM NaCl, 5 mM EDTA, 5% glycerol, 1% TritonX-100; western blot
[2] = biological target: TAA1-His (Arabidopsis thaliana) (UniProt Q9S7N2); test: pull-down; TAA1-His or His-Sumo held on Ni-NTA resin, incubated with GST-TMK4 KD in 20 mM HEPES pH 7.5, 40 mM KCl, 1 mM EDTA, 1% glycerol, 0.1‰ TritonX-100, 2 h at 4 °C; detected with GST antibody; both purified

| binding [1] | binding [2] | Molecule |
| --- | --- | --- |
| binds |  | TAR1-GFP (Tryptophan Aminotransferase Related protein 1) (from UniProt Q9LR29 1-388) (enzyme) |
|  | binds | GST-TMK4 kinase domain (KD) (domain or fragment, UniProt Q9LK43 587-928) GGFGVVYAGELHDGTKTAVKRMECAAMGNKGMSEFQAEIAVLTKVRHRHLVALLGYCVNGNERLLVYEYMPQGNLGQHLFEWSELGYSPLTWKQRVSIALDVARGVEYLHSLAQQSFIHRDLKPSNILLGDDMRAKVADFGLVKNAPDGKYSVETRLAGTFGYLAPEYAATGRVTTKVDVYAFGVVLMEILTGRKALDDSLPDERSHLVTWFRRILINKENIPKALDQTLEADEETMESIYRVAELAGHCTAREPQQRPDMGHAVNVLGPLVEKWKPSCQEEEESFGIDVNMSLPQALQRWQNEGTSSSTMFHGDFSYSQTQSSIPPKASGFPNTFDSADGR |
